Reference: patent publication US20140030218A1, “Treatment And Screening” (IMPERIAL INNOVATIONS LIMITED, published 2014)

Molecular target: T1, TRIM28 (human) (UniProt Q13263)
T1 sequence: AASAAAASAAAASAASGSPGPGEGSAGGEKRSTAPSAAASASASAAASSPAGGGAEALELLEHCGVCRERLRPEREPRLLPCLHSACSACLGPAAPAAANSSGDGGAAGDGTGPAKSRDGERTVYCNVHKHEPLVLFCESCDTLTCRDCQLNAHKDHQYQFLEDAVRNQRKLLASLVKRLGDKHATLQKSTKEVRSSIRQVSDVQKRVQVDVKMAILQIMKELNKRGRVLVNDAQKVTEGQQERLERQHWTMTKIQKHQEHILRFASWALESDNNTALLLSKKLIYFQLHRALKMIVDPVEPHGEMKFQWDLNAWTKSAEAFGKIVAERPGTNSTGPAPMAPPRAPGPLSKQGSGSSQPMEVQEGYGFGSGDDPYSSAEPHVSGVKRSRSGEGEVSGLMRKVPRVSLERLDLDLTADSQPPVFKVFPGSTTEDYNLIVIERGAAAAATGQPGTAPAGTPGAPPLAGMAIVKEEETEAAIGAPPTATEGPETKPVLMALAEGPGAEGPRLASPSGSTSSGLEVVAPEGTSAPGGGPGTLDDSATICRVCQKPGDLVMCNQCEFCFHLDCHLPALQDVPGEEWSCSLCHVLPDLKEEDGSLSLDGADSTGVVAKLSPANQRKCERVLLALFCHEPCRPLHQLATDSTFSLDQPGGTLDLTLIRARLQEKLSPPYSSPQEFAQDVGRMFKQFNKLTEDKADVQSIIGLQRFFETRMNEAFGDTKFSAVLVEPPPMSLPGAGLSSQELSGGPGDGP
Experiment: One-Strep affinity purification after DTBP cross-linking, SDS-PAGE, mass spectrometry

B1: One-Strep-IRF5 fusion protein (other)
chain: MNQSIPVAPTPPRRVRLKPWLVAQVNSCQYPGLQWVNGEKKLFCIPWRHATRHGPSQDGDNTIFKAWAKETGKYTEGVDEADPAKWKANLRCALNKSRDFRLIYDGPRDMPPQPYKIYEVCSNGPAPTDSQPPEDYSFGAGEEEEEEEELQRMLPSLSLTEDVKWPPTLQPPTLQPPVVLGPPAPDPSPLAPPPGNPAGFRELLSEVLEPGPLPASLPPAGEQLLPDLLISPHMLPLTDLEIKFQYRGRPPRALTISNPHGCRLFYSQLEATQEQVELFGPISLEQVRFPSPEDIPSDKQRFYTNQLLDVLDRGLILQLQGQDLYAIRLCQCKVFWSGPCASAHDSCPNPIQREVKTKLFSLEHFLNELILFQKGQTNTPPPFEIFFCFGEEWPDRKPREKKLITVQVVPVAARLLLEMFSGELSWSADSIRLQISNPDLKDRMVEQFKELHHIWQSQQRLQPVAQAPPGAGLGVGQGPWPMHPAGMQ
notes: also called full-length IRF5 (One-Strep bait); not shown: One-Strep tag
binding: binds

No constants are given. Whether binding was seen depends on the method and setting. Binding seen in cells or lysates may run through a third protein. These calls come from enrichment with a bait or labelling near it, and not all partners need be listed.
